# Measured values taken from the supplement of paper PMC8616043.
# Where a name gives a salt, the structure may show the parent alone. The list shows a part of the results. This data set is noisy: repeats of one test often differ as much as different tests do.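 Human U-2 OS cells stably expressing a GFP sensor with a nuclear import signal and classical export signal were transfected to produce PR50, a 50-repeat proline–arginine dipeptide from ALS/FTD gene C9ORF72. Nuclear-minus-cytoplasm GFP was scaled from DMSO (low) to PR-only (high), scored against plate test wells; strongly negative scores marked PR-reversing hits.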
# System: U-2 OS NCT-C biosensor cells expressing PR50
# Experiment: Z-score of normalised NCT-C biosensor translocation index in PR50-expressing cells; higher = more nuclear biosensor (more disrupted nuclear export)
# Settings: 3 µM; 24 h
row,Compound,Z-score
1,Nc1cc(N)c(N)cc1N [FAK Inhibitor 14],inactive: 0.622
2,O=C(c1ccc(Cl)cc1Cl)n1nnc2ccccc21,active: -2.22
3,C=C1[C@H](CO)[C@@H](O)C[C@@H]1n1cnc2c(=O)[nH]c(N)nc21 [Entecavir],inactive: -0.639
4,CC(=O)O[C@]1(C(C)=O)CC[C@H]2[C@@H]3C=C(C)C4=CC(=O)CC[C@]4(C)[C@H]3CC[C@@]21C [Megestrol Acetate],inactive: 0.531
5,Cc1cccc(C2CN(C)CCc3c2cc(O)c(O)c3Cl)c1 (centres undefined),inactive: -1.01
6,Nc1nc(=O)[nH]cc1F [Flucytosine],inactive: 0.84
7,CC(C)(S)[C@H](N)C(=O)O [L-Penicillamine],inactive: -1.14
8,Oc1cc(O)cc(/C=C/c2ccc(O)c(O)c2)c1 [Piceatannol],inactive: -1.14
9,CC[C@@]1(O)C(=O)OCc2c1cc1n(c2=O)Cc2cc3c(CN(C)C)c(O)ccc3nc2-1 [Topotecan·HCl],inactive: -0.21
10,CC[C@@]1(O)C(=O)OCc2c1cc1n(c2=O)Cc2cc3c(CN(C)C)c(O)ccc3nc2-1 [Topotecan hydrochloride hydrate],inactive: 0.789
11,Nc1nnc(-c2cccc(Cl)c2Cl)c(N)n1 [Lamotrigine],inactive: -0.143
12,Nc1nnc(-c2cccc(Cl)c2Cl)c(N)n1 [Lamotrigine isethionate],inactive: -0.653
13,CN1[C@@H]2CC[C@H]1C[C@@H](OC(c1ccccc1)c1ccccc1)C2 [Benztropine mesylate],inactive: 2.74
14,CN1[C@@H]2CC[C@H]1C[C@@H](OC(c1ccccc1)c1ccccc1)C2 [Benztropine Mesylate],inactive: -0.0851
15,C[C@@H]1O[C@@H](OC[C@H]2O[C@@H](Oc3c(-c4ccc(O)c(O)c4)oc4cc(O)cc(O)c4c3=O)[C@H](O)[C@@H](O)[C@@H]2O)[C@H](O)[C@H](O)[C@H]1O [Rutin],inactive: -0.303
16,Cn1cc(/C=C/C(=O)c2cccc(F)c2)cc1/C=C/C(=O)NO,inactive: -1.36
17,CC(=O)OCC(=O)[C@@]12OC3(CCCC3)O[C@@H]1C[C@H]1[C@@H]3CCC4=CC(=O)C=C[C@]4(C)[C@@]3(F)[C@@H](O)C[C@@]12C [Amcinonide],inactive: -0.638
18,C/C(O)=C(\C#N)C(=O)Nc1ccc(C(F)(F)F)cc1 [Teriflunomide],inactive: 0.0979
19,COc1nc(C)cnc1NS(=O)(=O)c1cccnc1-c1ccc(-c2nnco2)cc1 [Zibotentan],inactive: -0.625
20,Nc1ccccc1NC(=O)CCCCCCC(=O)Nc1ccccc1,inactive: -1.27
21,C[C@@H]1O[C@@H](O[C@H]2[C@H](Oc3cc(O)c4c(c3)O[C@H](c3ccc(O)cc3)CC4=O)O[C@H](CO)[C@@H](O)[C@@H]2O)[C@H](O)[C@H](O)[C@H]1O [Naringin],inactive: -0.446
22,O=C1CC(c2ccc(O)cc2)Oc2cc(O[C@@H]3O[C@H](CO)[C@@H](O)[C@H](O)[C@H]3O)cc(O)c21 (some centres undefined) [Naringenin-7-O-glucoside],inactive: -0.0673
23,N[C@@H](CC(=O)N1CCn2c(nnc2C(F)(F)F)C1)Cc1cc(F)c(F)cc1F [Sitagliptin Phosphate],inactive: -0.603

row,Compound,Z-score
1,OC[C@H]1O[C@@H](O[C@@H]2OC=C[C@H]3[C@H](O)[C@@H]4O[C@]4(CO)[C@@H]23)[C@H](O)[C@@H](O)[C@@H]1O [Catalpol],inactive: -1.11
2,Nc1c(S(=O)(=O)O)cc(Nc2ccc(Nc3nc(Cl)nc(Nc4cccc(S(=O)(=O)O)c4)n3)c(S(=O)(=O)O)c2)c2c1C(=O)c1ccccc1C2=O [Reactive Blue 2],inactive: -0.775
3,"c1ccc(CN2CCC3(CCCc4ccccc43)CC2)cc1 [L-687,384  hydrochloride]",inactive: 0.77
4,CNCC[C@@H](Oc1ccccc1C)c1ccccc1 [Atomoxetine·HCl],inactive: -0.123
5,CNCC[C@@H](Oc1ccccc1C)c1ccccc1 [Tomoxetine hydrochloride],inactive: -0.0382
6,COCCCOc1ccnc(C[S+]([O-])c2nc3ccccc3[nH]2)c1C (centres undefined) [Rabeprazole·Na],inactive: -0.078
7,COCCCOc1ccnc(C[S+]([O-])c2nc3ccccc3[nH]2)c1C (centres undefined) [Rabeprazole sodium],inactive: 0.409
8,CC(=O)/N=c1/sc(S(N)(=O)=O)nn1C [Methazolamide],inactive: -0.732
9,CC1=CC(=O)c2ccccc2C1=O [Menadione],inactive: -1.06
10,N=C(N)N1CCc2ccccc2C1 [Debrisoquin sulfate],inactive: -0.299
11,"O=C(O)Cc1ccc(O)c(O)c1 [3,4-Dihydroxyphenylacetic acid]",inactive: -0.578
12,CCCc1nc2c(C)cc(-c3nc4ccccc4n3C)cc2n1Cc1ccc(-c2ccccc2C(=O)O)cc1 [Telmisartan],inactive: 0.351
13,CCCCC1C(=O)N(c2ccccc2)N(c2ccccc2)C1=O [Phenylbutazone],inactive: -0.9
14,N=C(N)SCCN [2-(2-Aminoethyl) isothiourea diHBr],inactive: 0.144
15,Clc1ccc(COC(Cn2ccnc2)c2ccc(Cl)cc2Cl)cc1 (centres undefined) [Econazole Nitrate],inactive: -0.136
16,C[C@]12CC[C@@H]3c4ccc(O)cc4CC[C@H]3[C@@H]1[C@@H](O)[C@@H](O)[C@@H]2O [Estetrol],inactive: 0.756
17,Clc1ccccc1C(c1ccccc1)(c1ccccc1)n1ccnc1 [Clotrimazole],inactive: 0.0289
18,NC(=O)NO [Hydroxyurea],inactive: 0.0476
19,CO/N=C1\CN(c2nc3c(cc2F)c(=O)c(C(=O)O)cn3C2CC2)CC1CN (centres undefined) [Gemifloxacin mesylate],inactive: -0.12
20,CO/N=C1\CN(c2nc3c(cc2F)c(=O)c(C(=O)O)cn3C2CC2)CC1CN (centres undefined) [Gemifloxacin],inactive: 1.54
21,Cc1ncc(-c2c[nH]c3ccccc23)o1 [Pimprinine],inactive: -0.742
22,COc1cc2c(cc1OC)[C@H]1[C@@H](C)c3ccc(OC)c(OC)c3CN1CC2 [Corydaline],inactive: -0.427
23,CN1CCC[C@H]1c1cccnc1 [(-)-Nicotine],inactive: -0.291

# Quoted at random: 5 records from the list, in no set order.
row,Compound,Z-score
16,C[C@]12CC[C@@H]3c4ccc(O)cc4CC[C@H]3[C@@H]1[C@@H](O)[C@@H](O)[C@@H]2O [Estetrol],inactive: 0.756
9,CC1=CC(=O)c2ccccc2C1=O [Menadione],inactive: -1.06
11,"O=C(O)Cc1ccc(O)c(O)c1 [3,4-Dihydroxyphenylacetic acid]",inactive: -0.578
2,Nc1c(S(=O)(=O)O)cc(Nc2ccc(Nc3nc(Cl)nc(Nc4cccc(S(=O)(=O)O)c4)n3)c(S(=O)(=O)O)c2)c2c1C(=O)c1ccccc1C2=O [Reactive Blue 2],inactive: -0.775
23,CN1CCC[C@H]1c1cccnc1 [(-)-Nicotine],inactive: -0.291

# The list goes on.

row,Compound,Z-score
1,CN1CCC[C@H]1c1cccnc1 [Nicotine],inactive: -0.0818
2,CCCC(C(=O)OCCN(CC)CC)(c1ccccc1)c1ccccc1 [SKF-525A  hydrochloride],inactive: -0.978
3,CC(C)(C)c1ccc(S(=O)(=O)NCc2ccc(C(=O)Nc3cccnc3)cc2)cc1,inactive: -1.3
4,CC(C)=CCC/C(C)=C/COc1ccc2ccc(=O)oc2c1 [Auraptene],inactive: -0.547
5,COc1cc(CC(=O)O)ccc1O [4-Hydroxy-3- methoxy phenylacetic acid],inactive: -0.167
6,CCCCC#Cc1nc(NC)c2ncn([C@@H]3O[C@H](CO)[C@@H](O)[C@H]3O)c2n1,inactive: 0.362
7,N[C@@H](Cc1ccc(F)cc1)C(=O)O [p-Fluoro-L- phenylalanine],inactive: -0.958
8,CC[C@]1(O)C[C@@H]2CN(CCc3c([nH]c4ccccc34)[C@@](C(=O)OC)(c3cc4c(cc3OC)N(C)[C@H]3[C@@](O)(C(=O)OC)[C@H](OC(C)=O)[C@]5(CC)C=CCN6CC[C@]43[C@@H]65)C2)C1 [Vinblastine Sulfate],inactive: 1.74
9,C[C@H]1CC[C@@H](C(C)(C)O)CC2=C1CC[C@@H]2C [(-)-Guaiol],inactive: -0.547
10,CCC(C)CNCC(=O)N1CCc2sccc2C1COc1cccc(C)c1 (centres undefined) [RU-SKI 43  maleate],inactive: -1.09
11,"COC1=C(OC)C(=O)c2ccccc2C1=O [2,3-Dimethoxy-1,4- naphthoquinone]",inactive: -0.00462
12,COc1ccc(/C=C2\COc3ccc(C)cc3C2=O)cc1O,inactive: -0.44
13,CN(C)CCC(c1ccccc1)c1ccccn1 (centres undefined) [Pheniramine maleate],inactive: -0.555
14,Cc1c(O)cccc1C(=O)N[C@@H](CSc1ccccc1)[C@H](O)CN1C[C@H]2CCCC[C@H]2C[C@H]1C(=O)NC(C)(C)C [Nelfinavir Mesylate],inactive: -0.322
15,Nc1nc(=O)c2c([nH]1)NCC(CNc1ccc(C(=O)N[C@@H](CCC(=O)O)C(=O)O)cc1)N2C=O (some centres undefined) [Leucovorin Calcium Pentahydrate],inactive: -0.971
16,"CN(C)C(=O)N=NC(=O)N(C)C [N,N,N',N'-  Tetramethylazodic arboxamide]",inactive: 0.729
17,C=CCc1ccccc1OCC(O)CNC(C)C (centres undefined) [Alprenolol hydrochloride],inactive: 0.109
18,NC[C@H]1CC[C@H](C(=O)O)CC1 [Tranexamic Acid],inactive: -0.314
19,CC(=O)OC(C)C[N+](C)(C)C (centres undefined) [Methacholine Chloride],inactive: 0.14
20,CC(=O)OC(C)C[N+](C)(C)C (stereo not drawn) [Acetyl-beta- methylcholine chloride],inactive: 0.197
21,CCCCC[C@H](CC(=O)NO)C(=O)N[C@H](C(=O)N1CCC[C@H]1CO)C(C)C [Actinonin],inactive: 0.736
22,Cc1nc(N=Nc2ccc(S(=O)(=O)O)cc2S(=O)(=O)O)c(COP(=O)(O)O)c(C=O)c1O,inactive: -0.7
23,Cc1ccc(O)c([C@H](CCN(C(C)C)C(C)C)c2ccccc2)c1 [Tolterodine Tartrate],inactive: -0.0508
